These are yes or no findings as the source states them, for the method shown. Binding seen in cells or lysates may run through a third protein. These calls come from enrichment with a bait or labelling near it, and not all partners need be listed. Blank lines part the entries; values can stand above or below the molecule they belong to.
Target: T1, Hyaluronidase (HYAL)-2 (human (endogenous in human lung fibroblasts AG02262)) (UniProt Q12891)
T1 sequence: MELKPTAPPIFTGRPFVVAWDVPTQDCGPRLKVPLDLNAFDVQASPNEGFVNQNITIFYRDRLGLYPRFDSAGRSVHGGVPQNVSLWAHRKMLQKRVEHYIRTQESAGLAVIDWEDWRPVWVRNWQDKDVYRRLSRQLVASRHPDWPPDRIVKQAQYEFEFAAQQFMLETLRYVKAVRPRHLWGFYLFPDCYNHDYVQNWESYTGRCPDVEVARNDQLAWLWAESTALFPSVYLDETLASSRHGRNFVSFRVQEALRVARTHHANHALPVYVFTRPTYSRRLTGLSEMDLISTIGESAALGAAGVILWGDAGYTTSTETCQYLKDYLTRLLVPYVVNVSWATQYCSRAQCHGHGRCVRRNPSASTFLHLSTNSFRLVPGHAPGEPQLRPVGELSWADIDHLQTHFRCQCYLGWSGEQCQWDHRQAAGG
Assay: affinity purification with mass spectrometry; anti-HYAL2 co-immunoprecipitation eluates of myofibroblasts run on a 7.5% polyacrylamide gel, gel plugs digested with trypsin, MALDI TOF/TOF, Mascot search restricted to human

Protein sequences, listed by entry. Tags and fused reporters are not part of them.
UniProt Q8TDG2: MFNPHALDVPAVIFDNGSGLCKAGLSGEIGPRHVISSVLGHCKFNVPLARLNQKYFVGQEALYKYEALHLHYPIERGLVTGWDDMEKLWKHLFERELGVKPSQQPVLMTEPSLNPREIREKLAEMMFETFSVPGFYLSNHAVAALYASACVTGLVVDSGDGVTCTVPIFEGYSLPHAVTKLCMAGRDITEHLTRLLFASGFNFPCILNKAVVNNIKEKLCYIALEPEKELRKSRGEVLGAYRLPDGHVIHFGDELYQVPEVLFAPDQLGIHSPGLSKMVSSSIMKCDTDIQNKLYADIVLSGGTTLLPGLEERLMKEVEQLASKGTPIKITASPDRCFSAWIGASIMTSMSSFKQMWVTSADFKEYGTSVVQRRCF
UniProt P35579: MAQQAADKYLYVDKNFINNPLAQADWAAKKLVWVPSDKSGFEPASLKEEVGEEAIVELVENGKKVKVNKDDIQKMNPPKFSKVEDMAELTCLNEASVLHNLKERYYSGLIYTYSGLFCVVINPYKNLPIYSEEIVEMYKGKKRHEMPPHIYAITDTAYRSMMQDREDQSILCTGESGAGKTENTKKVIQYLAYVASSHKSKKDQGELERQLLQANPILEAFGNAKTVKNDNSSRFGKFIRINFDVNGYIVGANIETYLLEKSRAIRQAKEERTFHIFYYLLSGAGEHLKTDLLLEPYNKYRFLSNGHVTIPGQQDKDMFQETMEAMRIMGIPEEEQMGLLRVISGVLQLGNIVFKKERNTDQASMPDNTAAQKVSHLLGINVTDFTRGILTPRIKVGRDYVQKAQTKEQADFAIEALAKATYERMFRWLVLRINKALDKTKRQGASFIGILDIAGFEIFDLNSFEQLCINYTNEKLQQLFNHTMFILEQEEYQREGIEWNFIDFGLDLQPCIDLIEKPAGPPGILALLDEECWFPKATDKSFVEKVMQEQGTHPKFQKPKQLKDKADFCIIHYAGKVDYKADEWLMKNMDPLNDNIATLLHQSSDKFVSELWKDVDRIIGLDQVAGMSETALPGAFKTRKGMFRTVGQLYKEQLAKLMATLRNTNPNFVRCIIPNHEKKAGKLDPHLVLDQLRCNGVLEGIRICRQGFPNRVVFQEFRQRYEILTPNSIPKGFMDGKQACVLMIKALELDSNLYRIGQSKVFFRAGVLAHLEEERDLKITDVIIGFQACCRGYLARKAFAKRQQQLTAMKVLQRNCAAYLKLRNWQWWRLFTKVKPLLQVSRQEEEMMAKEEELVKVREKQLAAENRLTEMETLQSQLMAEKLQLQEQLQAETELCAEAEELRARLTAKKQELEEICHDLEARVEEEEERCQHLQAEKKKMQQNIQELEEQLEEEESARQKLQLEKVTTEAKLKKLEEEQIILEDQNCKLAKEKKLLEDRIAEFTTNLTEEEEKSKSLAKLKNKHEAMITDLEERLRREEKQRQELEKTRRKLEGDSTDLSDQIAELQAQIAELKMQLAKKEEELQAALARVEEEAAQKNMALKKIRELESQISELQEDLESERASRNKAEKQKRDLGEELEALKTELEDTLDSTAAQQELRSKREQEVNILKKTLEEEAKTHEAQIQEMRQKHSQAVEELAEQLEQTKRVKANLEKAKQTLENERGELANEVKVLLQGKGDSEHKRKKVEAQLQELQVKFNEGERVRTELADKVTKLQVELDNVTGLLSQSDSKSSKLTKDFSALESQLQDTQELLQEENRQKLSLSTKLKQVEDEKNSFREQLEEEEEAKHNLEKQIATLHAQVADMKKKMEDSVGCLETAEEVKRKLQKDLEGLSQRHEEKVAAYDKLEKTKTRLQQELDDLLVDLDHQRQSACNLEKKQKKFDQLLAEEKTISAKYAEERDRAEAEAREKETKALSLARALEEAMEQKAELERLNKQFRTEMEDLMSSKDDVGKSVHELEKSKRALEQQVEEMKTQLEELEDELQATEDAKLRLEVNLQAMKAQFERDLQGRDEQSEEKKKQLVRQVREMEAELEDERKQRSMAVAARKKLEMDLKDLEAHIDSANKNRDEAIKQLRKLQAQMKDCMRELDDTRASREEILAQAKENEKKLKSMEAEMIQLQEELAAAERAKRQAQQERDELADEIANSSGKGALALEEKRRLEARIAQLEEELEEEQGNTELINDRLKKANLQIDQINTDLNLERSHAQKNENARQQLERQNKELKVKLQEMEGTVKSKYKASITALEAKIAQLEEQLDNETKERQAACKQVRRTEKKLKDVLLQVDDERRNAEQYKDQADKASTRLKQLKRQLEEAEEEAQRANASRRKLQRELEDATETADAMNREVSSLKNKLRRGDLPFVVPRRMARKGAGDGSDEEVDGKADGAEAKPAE
UniProt A5A3E0: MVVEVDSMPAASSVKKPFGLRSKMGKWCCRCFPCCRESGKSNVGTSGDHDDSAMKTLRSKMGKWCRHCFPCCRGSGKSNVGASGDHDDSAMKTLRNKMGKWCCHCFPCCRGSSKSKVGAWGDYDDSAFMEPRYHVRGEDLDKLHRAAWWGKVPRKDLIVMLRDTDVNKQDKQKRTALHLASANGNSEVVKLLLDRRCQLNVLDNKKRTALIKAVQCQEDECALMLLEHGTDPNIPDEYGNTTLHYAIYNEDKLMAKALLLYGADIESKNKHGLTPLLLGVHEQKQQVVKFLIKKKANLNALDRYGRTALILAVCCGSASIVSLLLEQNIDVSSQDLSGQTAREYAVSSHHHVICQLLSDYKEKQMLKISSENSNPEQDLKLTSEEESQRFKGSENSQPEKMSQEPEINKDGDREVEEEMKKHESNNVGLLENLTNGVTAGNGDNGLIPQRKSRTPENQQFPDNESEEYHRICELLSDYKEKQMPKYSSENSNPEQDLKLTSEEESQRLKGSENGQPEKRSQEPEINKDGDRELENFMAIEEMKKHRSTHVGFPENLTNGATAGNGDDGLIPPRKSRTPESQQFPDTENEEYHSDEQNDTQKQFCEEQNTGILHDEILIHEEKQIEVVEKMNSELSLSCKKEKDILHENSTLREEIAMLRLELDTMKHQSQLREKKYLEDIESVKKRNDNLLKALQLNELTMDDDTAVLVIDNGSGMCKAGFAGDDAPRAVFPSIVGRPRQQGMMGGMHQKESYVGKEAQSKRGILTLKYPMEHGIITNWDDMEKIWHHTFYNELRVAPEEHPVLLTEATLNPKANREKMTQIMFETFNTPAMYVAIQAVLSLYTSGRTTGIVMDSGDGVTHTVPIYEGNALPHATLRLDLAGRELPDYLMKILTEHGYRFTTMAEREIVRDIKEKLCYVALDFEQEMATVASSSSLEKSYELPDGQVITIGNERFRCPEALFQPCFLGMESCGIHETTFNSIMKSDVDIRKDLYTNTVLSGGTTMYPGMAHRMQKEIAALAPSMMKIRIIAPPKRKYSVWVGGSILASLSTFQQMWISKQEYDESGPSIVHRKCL
UniProt Q6S8J3: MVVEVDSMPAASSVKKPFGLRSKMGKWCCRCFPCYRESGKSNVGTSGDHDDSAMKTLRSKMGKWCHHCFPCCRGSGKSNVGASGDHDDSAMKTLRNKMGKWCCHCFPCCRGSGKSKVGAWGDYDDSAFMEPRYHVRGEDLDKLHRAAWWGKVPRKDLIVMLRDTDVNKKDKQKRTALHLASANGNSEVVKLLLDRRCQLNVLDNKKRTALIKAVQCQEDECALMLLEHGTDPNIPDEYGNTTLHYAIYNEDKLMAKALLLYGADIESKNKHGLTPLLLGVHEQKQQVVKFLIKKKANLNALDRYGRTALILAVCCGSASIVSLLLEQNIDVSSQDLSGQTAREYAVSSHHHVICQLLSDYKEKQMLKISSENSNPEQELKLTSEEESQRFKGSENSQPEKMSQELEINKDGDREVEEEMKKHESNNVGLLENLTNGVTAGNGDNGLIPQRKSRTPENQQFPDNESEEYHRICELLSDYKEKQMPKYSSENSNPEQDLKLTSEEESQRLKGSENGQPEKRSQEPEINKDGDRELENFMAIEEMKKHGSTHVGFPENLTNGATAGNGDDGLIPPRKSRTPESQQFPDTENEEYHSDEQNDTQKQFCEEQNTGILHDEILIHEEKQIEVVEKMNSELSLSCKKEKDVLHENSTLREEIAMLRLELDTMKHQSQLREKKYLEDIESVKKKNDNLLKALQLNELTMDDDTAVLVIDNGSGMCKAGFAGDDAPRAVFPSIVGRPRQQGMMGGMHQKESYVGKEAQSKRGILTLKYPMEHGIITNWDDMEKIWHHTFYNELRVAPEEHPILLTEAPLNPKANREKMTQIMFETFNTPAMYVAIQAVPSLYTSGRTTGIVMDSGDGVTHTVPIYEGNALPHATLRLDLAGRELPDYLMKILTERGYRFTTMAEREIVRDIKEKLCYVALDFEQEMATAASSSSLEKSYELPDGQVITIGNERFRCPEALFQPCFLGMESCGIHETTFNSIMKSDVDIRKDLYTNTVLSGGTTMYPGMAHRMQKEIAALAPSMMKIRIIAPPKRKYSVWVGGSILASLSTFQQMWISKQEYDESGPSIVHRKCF

Molecule: Actin-related protein T1 (from UniProt Q8TDG2 1-376)
binding: binds

Molecule: Myosin-9 (NMMHCIIA) (from UniProt P35579 1-1960)
binding: binds

Molecule: POTE ankyrin domain family member F (from UniProt A5A3E0 1-1075)
binding: binds

B1: Nebulin-related-LIM/SH3 domain protein 1 (protein, UniProt Q14847 1-261)
chain: MNPNCARCGKIVYPTEKVNCLDKFWHKACFHCETCKMTLNMKNYKGYEKKPYCNAHYPKQSFTMVADTPENLRLKQQSELQSQVRYKEEFEKNKGKGFSVVADTPELQRIKKTQDQISNIKYHEEFEKSRMGPSGGEGMEPERRDSQDGSSYRRPLEQQQPHHIPTSAPVYQQPQQQPVAQSYGGYKEPAAPVSIQRSAPGGGGKRYRAVYDYSAADEDEVSFQDGDTIVNVQQIDDGWMYGTVERTGDTGMLPANYVEAI
binding: binds

Results, then the molecule that gave them:

binding: binds
Molecule: POTE ankyrin domain family member E (from UniProt Q6S8J3 1-1075)

binding: binds
Molecule: Vinculin (from UniProt P18206-2)

Reference: paper PMC7254050
